Experimental data reported in patent US20220364173.

Molecular target: T1, MjDim1 (Dim1/KsgA dimethyltransferase) (Methanocaldococcus jannaschii) (UniProt Q58435)
T1 sequence (looked up, limits assumed): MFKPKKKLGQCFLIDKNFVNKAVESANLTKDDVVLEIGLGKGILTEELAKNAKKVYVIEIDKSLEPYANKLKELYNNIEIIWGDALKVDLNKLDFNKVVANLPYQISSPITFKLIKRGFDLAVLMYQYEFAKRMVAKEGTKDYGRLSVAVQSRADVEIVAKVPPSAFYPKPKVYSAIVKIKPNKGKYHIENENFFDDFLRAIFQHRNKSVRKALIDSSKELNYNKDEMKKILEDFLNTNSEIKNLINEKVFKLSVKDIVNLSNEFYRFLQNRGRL
Assay: activity assay
Settings: allyl-SAM cofactor, Km similar, purified recombinant protein

Row | Sequence | activity on this sequence (m6A at the A of GGACU, MALDI shows allyl transfer, kcat 10-fold that of unmodified A) | activity on this sequence (no product by MALDI, kcat about 10-fold lower than m6A probe, variant of 12mer m6A RNA (Maldi_Probe_m6A))
1 | CGUGGACUGGCU [12mer m6A RNA (Maldi_Probe_m6A)] | active | 
2 | CGUGGACUGGCU [12mer unmodified RNA (Maldi_Probe_A)] |  | less active

The exact form of at least one protein or probe is not confirmed. Weaker means in comparison with the reference protein, sequence or condition of that experiment. Protein sequences can lack the tags named with them.
